These are yes or no findings as the source states them, for the method shown. A result given as binding can be weak or reduced; the word gives no strength.
Experiments:
[1] = target: CmWC-1-His (Cordyceps militaris) (UniProt G3J3J5); assay: pull-down; CmWC-1-His or CmVVD-His held on His-megbeads, mixed with CmWC-2-GST, CmWC-3-GST or GST, 4°C for 1 h; washed with 50 mM Tris, 300 mM NaCl, 20 mM imidazole; eluted with 250 mM imidazole; eluent and bead residues read by western blot; both purified
[2] = target: CmVVD-His (Cordyceps militaris) (UniProt G3JFF2); assay: as above

The chains behind the UniProt entries cited, without tags or fusion partners. Where a name states a change or a piece, a line headed by the entry shows the natural chain unless it says otherwise.
UniProt G3J3J5: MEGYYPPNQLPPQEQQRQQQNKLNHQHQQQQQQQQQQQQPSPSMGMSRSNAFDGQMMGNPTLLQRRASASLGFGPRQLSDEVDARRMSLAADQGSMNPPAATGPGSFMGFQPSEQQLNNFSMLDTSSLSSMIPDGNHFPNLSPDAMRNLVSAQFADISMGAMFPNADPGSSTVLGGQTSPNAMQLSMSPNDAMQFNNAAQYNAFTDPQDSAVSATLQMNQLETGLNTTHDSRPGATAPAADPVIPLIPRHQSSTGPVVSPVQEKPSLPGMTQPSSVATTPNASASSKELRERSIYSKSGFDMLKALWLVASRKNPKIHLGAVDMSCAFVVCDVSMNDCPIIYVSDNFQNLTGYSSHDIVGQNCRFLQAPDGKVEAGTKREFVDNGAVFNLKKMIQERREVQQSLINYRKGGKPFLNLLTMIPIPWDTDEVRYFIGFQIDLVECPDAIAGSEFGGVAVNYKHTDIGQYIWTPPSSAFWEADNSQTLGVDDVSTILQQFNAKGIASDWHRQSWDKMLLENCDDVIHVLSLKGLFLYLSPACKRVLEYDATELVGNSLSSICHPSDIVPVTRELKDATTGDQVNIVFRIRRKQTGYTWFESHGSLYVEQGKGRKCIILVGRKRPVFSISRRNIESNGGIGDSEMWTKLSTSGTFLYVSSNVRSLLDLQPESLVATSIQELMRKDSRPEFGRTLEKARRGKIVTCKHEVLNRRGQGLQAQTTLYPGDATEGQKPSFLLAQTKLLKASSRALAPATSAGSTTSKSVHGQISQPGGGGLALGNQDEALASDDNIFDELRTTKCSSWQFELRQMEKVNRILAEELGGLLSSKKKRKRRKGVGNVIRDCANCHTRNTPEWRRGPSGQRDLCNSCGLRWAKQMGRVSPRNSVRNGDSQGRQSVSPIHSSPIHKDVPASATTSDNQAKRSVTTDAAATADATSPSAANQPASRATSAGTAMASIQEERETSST
UniProt G3JFF2: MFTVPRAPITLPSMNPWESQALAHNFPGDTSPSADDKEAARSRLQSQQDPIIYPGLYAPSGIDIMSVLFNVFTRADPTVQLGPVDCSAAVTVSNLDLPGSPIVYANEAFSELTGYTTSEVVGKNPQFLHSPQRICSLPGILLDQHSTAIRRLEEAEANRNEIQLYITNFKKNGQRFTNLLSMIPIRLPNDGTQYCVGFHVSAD
UniProt G3J745: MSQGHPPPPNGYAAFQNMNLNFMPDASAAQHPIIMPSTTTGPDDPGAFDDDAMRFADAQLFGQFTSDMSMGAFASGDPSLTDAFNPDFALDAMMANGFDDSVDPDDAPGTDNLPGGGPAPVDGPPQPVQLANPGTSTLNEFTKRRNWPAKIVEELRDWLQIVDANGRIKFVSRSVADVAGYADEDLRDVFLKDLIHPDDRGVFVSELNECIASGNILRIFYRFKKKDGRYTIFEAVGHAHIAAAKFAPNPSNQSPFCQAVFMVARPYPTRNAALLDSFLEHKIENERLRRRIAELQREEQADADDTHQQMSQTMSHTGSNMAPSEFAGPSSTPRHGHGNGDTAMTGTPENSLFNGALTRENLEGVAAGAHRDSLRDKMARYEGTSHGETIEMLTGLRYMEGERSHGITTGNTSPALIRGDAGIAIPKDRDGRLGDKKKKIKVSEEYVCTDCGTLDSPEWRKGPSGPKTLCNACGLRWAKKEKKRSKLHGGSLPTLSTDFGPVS
UniProt G3J672: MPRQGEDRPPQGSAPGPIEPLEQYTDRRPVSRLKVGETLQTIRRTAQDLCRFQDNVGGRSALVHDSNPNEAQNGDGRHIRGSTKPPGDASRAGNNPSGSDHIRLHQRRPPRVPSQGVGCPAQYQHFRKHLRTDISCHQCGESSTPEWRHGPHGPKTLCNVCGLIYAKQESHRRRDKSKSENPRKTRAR

binding [1]	binding [2]	Substance
binds	binds	CmWC-2-GST (from UniProt G3J745)
binds	binds	CmWC-3-GST (from UniProt G3J672)
